One molecule from patent US20240101675A1 (BIOLOJIC DESIGN, published 2024) can be followed below.

Sequences of proteins named here, by UniProt entry; tags and fusion partners are left off. Residues count along the entry.
UniProt Q969D9, residues 29-159: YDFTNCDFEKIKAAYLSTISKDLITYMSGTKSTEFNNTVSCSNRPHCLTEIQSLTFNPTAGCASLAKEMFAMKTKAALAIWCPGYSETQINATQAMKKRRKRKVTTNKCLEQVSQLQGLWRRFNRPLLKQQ

These are yes or no findings as the source states them, for the method shown. Some results given as binding are weak or reduced against the parent protein; the word gives no strength. Tags and fused reporters may be left off the sequences shown.

This assay addresses hTSLP-His (ACRO biosystems cat: TSP-H52Hb) (human) (UniProt Q969D9). Briefly: blocking ELISA: competitor mixed with 3 nM hTSLP-His, then on a plate coated with TSLP-R-Fc; bound hTSLP-His by anti-His-HRP. A general note: ELISA stands for enzyme-linked immunosorbent assay.

B1: TSLP-R-Fc tag (ACRO biosystems TSR-H525a) (Fc fusion, UniProt Q9HC73 23-231, looked up)
chain: QGGAAEGVQIQIIYFNLETVQVTWNASKYSRTNLTFHYRFNGDEAYDQCTNYLLQEGHTSGCLLDAEQRDDILYFSIRNGTHPVFTASRWMVYYLKPSSPKHVRFSWHQDAVTVTCSDLSYGDLLYEVQYRSPFDTEWQSKQENTCNVTIEGLDAEKCYSFWVRVKAMEDVYGPDTYPSDWSEVTCWQRGEIRDACAETPTPPKPKLSK
notes: bought; also called TSLP receptor; not shown: Fc tag
B1: the binding entry is reported as “binds”.
